1 compound from patent publication US20250144094A1 (Erasca, Inc., priority 2021, published 2025) can be followed below.

The chains behind the UniProt entries cited, without tags or fusion partners. Residues count along the entry.
UniProt O75385, 1-649 limits assumed: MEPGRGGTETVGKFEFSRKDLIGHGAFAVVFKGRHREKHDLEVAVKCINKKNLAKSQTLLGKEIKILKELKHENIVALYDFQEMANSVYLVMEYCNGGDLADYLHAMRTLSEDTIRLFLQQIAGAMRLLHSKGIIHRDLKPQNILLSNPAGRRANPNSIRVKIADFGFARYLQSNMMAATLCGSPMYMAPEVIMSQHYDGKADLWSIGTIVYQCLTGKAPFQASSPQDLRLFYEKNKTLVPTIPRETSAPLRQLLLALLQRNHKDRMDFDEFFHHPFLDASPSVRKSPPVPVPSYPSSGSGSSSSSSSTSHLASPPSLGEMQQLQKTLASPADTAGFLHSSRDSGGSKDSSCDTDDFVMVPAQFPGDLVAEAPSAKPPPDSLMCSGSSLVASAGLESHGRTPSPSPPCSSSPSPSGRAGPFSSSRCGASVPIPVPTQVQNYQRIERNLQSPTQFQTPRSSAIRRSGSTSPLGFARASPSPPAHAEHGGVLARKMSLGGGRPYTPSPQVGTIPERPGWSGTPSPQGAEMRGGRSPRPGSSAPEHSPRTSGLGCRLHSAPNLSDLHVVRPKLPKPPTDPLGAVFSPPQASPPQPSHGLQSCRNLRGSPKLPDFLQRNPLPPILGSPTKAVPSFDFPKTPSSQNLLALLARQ

What is called pIC50 is the negative decadic logarithm of the IC50, by convention in mol/L.

This test deals with Recombinant human ULK1 (1-649) (Homo sapiens (Human), UniProt O75385). The experiment in a line: ULK1 ADP Glo kinase activity assay (MBP substrate). The conditions noted are these: read-out: ULK1 biochemical IC50, 25° C., 40 minutes. How it is done: Recombinant human ULK1 (1-649) protein expressed in Sf9 insect cells was obtained from SignalChem (Vancouver, BC), catalog #U01-11G. Active kinase was purified via N-terminal GST tag to >85% purity.
ADP GLO Kinase Assay Reagents were obtained from Promega Corp (Madison, WI), catalog #V9104.
MBP (myelin basic protein) substrate, bovine, purified, was obtained from Sigma (St. Louis, MO), catalog #M1891.
ULK1 inhibitor potency was determined using the luminescent ADP Glo Kinase Assay (Promega), a universal ADP detection system that measures kinase activity by quantifying the amount of ADP produced during a kinase reaction. ULK1 kinase reactions are performed in a standard 96-well microplate (20 uL reaction volume) at 25° C. for 40 minutes in the presence or absence of the test compound (12-point dilution series starting at 10 uM). […]
The standard ADP Glo assay is performed in two steps. […] In the second step, the Kinase Detection Reagent (10 uL) is added to simultaneously convert ADP to ATP and allow the newly synthesized ATP to be measured using a luciferase/luciferin reaction. […] Thirty minutes after the addition of the Detection reagent, light generated from the luciferase reaction is measured (1 second exposure) using a microplate compatible luminometer (CLARIOstar, BMG Labtech).
Inhibition of ULK1 kinase activity is determined for each test compound by comparison to DMSO only control wells. […]
For orientation: ADP-Glo first removes unused ATP, then detects ADP through luciferase.

SMILES strings stand for the structures. pIC50: −log10 of the molar value. Structures were worked out from names or drawings and are uncertain.

As to `CN1Cc2cc(Cl)c(Nc3ncc(C(F)(F)F)c(-c4cc(S(C)(=O)=O)cs4)n3)cc2C1`, the pIC50 was greater than 8.00.
